Results: publication PMC6702834
These are yes or no findings as the source states them, for the method shown. In cells and extracts the contact can be indirect. Some binding calls cover weakened binding; strength is not graded here. For some assays here: Sequences can lack the tags named with a protein.

Chains of the proteins cited; added tags and fusions are not shown. Residues count along the entry.
UniProt P16144, residues 28-1822: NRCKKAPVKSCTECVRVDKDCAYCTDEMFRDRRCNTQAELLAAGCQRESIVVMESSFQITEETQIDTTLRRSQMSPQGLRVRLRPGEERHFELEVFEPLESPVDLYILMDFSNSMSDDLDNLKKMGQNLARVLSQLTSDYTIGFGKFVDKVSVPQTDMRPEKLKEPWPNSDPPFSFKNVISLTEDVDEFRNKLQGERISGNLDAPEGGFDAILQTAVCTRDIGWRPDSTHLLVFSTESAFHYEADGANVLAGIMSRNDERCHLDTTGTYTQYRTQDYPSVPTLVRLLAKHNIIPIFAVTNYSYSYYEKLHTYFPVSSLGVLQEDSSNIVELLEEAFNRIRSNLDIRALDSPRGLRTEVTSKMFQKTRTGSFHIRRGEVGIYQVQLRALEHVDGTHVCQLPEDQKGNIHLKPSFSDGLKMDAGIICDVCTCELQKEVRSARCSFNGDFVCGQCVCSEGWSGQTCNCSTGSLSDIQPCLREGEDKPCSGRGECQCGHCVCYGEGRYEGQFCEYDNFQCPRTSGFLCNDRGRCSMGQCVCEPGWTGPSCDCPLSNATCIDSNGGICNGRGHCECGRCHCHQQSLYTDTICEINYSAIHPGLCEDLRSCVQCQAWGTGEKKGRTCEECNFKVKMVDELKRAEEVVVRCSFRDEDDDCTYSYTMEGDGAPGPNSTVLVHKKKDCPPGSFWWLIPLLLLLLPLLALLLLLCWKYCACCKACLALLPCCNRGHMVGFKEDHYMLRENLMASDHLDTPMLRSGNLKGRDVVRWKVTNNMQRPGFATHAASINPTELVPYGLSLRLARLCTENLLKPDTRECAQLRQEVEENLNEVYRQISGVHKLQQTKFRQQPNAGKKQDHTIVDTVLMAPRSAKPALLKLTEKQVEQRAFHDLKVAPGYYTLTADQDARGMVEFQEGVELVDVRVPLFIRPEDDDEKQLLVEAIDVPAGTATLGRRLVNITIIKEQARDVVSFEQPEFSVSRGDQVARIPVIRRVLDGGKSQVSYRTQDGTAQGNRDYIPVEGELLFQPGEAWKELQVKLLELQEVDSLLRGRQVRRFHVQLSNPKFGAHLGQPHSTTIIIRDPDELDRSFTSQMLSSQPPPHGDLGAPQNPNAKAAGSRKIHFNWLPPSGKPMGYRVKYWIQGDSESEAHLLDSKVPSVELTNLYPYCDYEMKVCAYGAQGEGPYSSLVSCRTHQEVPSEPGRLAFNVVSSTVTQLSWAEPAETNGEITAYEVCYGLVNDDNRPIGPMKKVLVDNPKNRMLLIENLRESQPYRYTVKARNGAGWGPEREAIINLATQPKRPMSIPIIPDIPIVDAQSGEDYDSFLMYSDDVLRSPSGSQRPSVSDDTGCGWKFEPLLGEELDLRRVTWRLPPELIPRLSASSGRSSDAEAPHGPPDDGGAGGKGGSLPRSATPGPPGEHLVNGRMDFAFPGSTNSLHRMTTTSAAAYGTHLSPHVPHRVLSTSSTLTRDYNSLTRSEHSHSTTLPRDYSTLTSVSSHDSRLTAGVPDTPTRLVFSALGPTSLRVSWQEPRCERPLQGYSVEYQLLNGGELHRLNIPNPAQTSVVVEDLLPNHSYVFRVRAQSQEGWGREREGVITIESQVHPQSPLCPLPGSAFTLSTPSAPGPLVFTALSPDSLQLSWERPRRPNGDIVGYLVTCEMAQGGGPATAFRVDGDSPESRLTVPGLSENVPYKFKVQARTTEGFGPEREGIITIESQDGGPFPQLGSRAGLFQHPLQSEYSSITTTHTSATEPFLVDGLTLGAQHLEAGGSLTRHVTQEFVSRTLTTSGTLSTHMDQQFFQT
UniProt P61073: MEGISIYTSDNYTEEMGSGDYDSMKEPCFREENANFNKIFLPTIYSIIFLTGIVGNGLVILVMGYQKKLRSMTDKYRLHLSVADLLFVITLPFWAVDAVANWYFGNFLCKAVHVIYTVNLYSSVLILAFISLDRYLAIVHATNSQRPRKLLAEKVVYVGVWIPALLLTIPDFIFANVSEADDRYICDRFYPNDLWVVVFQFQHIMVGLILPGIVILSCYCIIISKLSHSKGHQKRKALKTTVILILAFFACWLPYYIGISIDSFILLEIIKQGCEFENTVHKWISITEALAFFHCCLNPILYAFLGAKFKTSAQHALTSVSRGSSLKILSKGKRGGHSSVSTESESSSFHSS
UniProt P54764, residues 20-986: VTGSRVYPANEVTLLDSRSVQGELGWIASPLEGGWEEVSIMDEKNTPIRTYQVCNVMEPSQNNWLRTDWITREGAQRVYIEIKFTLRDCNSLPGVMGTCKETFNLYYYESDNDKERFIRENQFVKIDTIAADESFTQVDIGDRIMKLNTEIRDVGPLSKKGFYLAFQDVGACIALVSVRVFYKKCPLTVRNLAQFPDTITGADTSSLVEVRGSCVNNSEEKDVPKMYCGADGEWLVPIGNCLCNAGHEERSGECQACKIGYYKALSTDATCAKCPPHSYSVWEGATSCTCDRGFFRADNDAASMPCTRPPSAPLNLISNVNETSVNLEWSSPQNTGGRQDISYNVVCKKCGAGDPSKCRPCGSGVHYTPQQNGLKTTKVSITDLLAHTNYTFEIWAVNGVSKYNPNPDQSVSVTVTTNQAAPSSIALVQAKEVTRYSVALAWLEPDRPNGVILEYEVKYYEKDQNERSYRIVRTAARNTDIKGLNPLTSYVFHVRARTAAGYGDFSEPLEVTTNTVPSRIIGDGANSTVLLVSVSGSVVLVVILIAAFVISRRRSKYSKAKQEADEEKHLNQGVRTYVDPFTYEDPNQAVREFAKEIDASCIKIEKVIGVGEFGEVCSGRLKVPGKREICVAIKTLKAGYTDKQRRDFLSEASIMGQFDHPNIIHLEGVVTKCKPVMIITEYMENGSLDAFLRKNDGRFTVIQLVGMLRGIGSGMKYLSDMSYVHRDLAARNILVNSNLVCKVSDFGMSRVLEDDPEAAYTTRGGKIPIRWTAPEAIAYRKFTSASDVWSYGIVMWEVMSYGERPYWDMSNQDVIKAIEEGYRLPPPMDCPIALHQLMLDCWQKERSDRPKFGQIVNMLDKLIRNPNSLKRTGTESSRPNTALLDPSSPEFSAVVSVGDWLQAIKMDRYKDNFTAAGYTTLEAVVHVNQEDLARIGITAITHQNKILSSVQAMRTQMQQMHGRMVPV
UniProt P15311: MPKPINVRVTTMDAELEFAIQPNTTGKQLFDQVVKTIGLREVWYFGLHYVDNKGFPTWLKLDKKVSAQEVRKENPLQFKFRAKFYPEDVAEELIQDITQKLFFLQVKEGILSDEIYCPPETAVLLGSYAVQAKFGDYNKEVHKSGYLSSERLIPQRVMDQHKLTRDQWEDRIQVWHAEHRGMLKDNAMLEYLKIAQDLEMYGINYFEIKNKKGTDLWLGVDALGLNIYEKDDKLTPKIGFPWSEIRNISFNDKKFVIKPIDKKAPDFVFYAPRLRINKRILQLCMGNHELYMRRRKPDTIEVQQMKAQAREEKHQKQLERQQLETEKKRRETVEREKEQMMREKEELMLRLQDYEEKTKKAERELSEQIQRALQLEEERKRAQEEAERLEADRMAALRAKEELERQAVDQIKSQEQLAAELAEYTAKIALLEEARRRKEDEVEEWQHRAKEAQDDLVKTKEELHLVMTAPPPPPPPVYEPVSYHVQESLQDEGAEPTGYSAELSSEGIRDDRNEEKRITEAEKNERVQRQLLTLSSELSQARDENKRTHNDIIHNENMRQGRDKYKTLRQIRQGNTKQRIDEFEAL

What was measured:
[1] = molecular target: CD104 (human (endogenous in A818.4)) (UniProt P16144); assay: co-IP; endogenous proteins in TEX (exosome) lysates of A818.4 (wt, CD44v6kd or Tspan8kd); 100 ug lysate, HEPES buffer, 1% Lubrol or 1% TritonX-100; antibody 1h 4°C, ProteinG-Sepharose 1h; Western blot
[2] = molecular target: CD184 (human (endogenous in A818.4)) (UniProt P61073); assay: as above
[3] = molecular target: EphA4 (human (endogenous in A818.4)) (UniProt P54764); assay: as above
[4] = molecular target: T1, prostaglandin F2 receptor negative regulator (human (endogenous in A818.4)) (UniProt Q9P2B2); assay: as above
T1 sequence: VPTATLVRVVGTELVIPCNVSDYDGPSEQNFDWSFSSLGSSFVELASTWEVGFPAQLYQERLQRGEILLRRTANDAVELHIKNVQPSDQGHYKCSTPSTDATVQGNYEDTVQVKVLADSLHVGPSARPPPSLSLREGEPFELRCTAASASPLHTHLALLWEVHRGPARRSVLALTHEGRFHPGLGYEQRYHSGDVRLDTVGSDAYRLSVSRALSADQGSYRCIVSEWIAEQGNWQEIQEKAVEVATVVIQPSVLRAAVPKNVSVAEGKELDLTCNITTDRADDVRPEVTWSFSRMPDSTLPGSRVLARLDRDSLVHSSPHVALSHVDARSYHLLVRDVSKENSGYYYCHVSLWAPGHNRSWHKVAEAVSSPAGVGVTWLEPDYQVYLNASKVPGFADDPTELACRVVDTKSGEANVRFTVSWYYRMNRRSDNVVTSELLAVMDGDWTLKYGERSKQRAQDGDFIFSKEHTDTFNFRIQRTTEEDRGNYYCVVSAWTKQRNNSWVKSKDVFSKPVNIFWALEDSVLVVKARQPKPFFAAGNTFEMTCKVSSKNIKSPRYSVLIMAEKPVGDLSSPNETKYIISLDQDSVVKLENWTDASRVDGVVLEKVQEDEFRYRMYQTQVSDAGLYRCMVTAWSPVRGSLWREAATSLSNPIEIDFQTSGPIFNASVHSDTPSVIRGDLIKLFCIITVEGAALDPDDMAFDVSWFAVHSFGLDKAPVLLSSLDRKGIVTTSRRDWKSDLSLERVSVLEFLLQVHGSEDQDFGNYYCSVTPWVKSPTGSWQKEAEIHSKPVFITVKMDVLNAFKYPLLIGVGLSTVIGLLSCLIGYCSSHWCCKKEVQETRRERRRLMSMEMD

[5] = molecular target: CD104 (human (endogenous in A818.4)) (UniProt P16144); assay: co-IP; endogenous proteins in cell lysates (A818.4; Figure 6(d) also Capan1; wt, CD44v6kd or Tspan8kd cells); 500 ug lysate, HEPES buffer, 1% Lubrol or 1% TritonX-100; antibody 1h 4°C, ProteinG-Sepharose 1h; Western blot
[6] = molecular target: CD184 (human (endogenous in A818.4)) (UniProt P61073); assay: as above
[7] = molecular target: EphA4 (human (endogenous in A818.4)) (UniProt P54764); assay: as above
[8] = molecular target: ezrin (human (endogenous in A818.4)) (UniProt P15311); assay: as above

binding [1]: binds
binding [2]: binds
binding [3]: binds
binding [4]: binds
binding [5]: binds
binding [6]: binds
binding [7]: binds
binding [8]: binds
B1: Tspan8 (protein, UniProt P19075 1-237)
chain: MAGVSACIKYSMFTFNFLFWLCGILILALAIWVRVSNDSQAIFGSEDVGSSSYVAVDILIAVGAIIMILGFLGCCGAIKESRCMLLLFFIGLLLILLLQVATGILGAVFKSKSDRIVNETLYENTKLLSATGESEKQFQEAIIVFQEEFKCCGLVNGAADWGNNFQHYPELCACLDKQRPCQSYNGKQVYKETCISFIKDFLAKNLIIVIGISFGLAVIEILGLVFSMVLYCQIGNK
